According to patent US20200270365A1:
No constants are given. Whether binding was seen depends on the method and setting. Binding calls can cover weak binding; strength is not graded here.

How the values were obtained:
[1] = molecular target: PCSK9-D374Y mutant protein with His-tag: PCSK9-D374Y-His6 (human); test: looks back on the results of Example 6
[2] = molecular target: PCSK9-D374Y mutant protein with His-tag: PCSK9-D374Y-His6 (human); test: SPR (Biacore)
[3] = molecular target: PCSK9 with His-tag: PCSK9-His6 (human); test: SPR (Biacore)

binding [1]: binds
binding [2]: binds
binding [3]: binds
B1: humanized antibody h011-3 (antibody, V domains shown)
VH: QVQLVQSGAEVKKPGASVKVSCKASGYTFTGYTIHWVRQAPGQGLEWMGYINPSSTYTKFNQKFKDRVTMTRDTSISTAYMELSRLRSDDTAVYYCARERIYSNYWFFDVWGQGTTVTVSS
VL: DIVMTQSPSSLSASVGDRVTITCKASQNVYTAVAWYQQKPGKSPKLLIYSASNRYTGVPSRFSGSGSGTDFTLTISSLQPEDFATYFCQQYSSYPYTFGGGTKVEIK
